Results from the supplement of paper PMC4604168 (melanoma cell lines).
Some of the results follow. Repeats are few or missing, and single values can be far off.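 The apoptosis fraction was the count of cleaved-PARP antibody-stained nuclei relative to all DNA-stained nuclei, imaged in 1,536-well plates. Screening doses were set so most cells survived, and baseline and induced cleaved-PARP levels vary greatly across cell lines.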

Tests used:
Assay in all cases: cleaved PARP positive nuclei fraction relative to DMSO control; melanoma cells; higher = more apoptosis
Details in all cases: library dose: low library concentration; 72 h
COLO792 = tested on: COLO792
COLO800 = tested on: COLO800
COLO829 = tested on: COLO829
G361 = tested on: G361
IPC-298 = tested on: IPC-298
IST-MEL1 = tested on: IST-MEL1
LB2518-MEL = tested on: LB2518-MEL
LOXIMVI = tested on: LOXIMVI
MEL-HO = tested on: MEL-HO
MZ2-MEL = tested on: MZ2-MEL
MeWo = tested on: MeWo
RPMI7951 = tested on: RPMI7951
RVH-421 = tested on: RVH-421
SkMel28 = tested on: SkMel28
SkMel2 = tested on: SkMel2
SkMel30 = tested on: SkMel30
SkMel5 = tested on: SkMel5
UACC257 = tested on: UACC257
UACC62 = tested on: UACC62

Structure (SMILES)	cleaved PARP positive nuclei fraction (COLO792) [%]	cleaved PARP positive nuclei fraction (COLO800) [%]	cleaved PARP positive nuclei fraction (COLO829) [%]	cleaved PARP positive nuclei fraction (G361) [%]	cleaved PARP positive nuclei fraction (IPC-298) [%]	cleaved PARP positive nuclei fraction (IST-MEL1) [%]	cleaved PARP positive nuclei fraction (LB2518-MEL) [%]	cleaved PARP positive nuclei fraction (LOXIMVI) [%]	cleaved PARP positive nuclei fraction (MEL-HO) [%]	cleaved PARP positive nuclei fraction (MZ2-MEL) [%]	cleaved PARP positive nuclei fraction (MeWo) [%]	cleaved PARP positive nuclei fraction (RPMI7951) [%]	cleaved PARP positive nuclei fraction (RVH-421) [%]	cleaved PARP positive nuclei fraction (SkMel28) [%]	cleaved PARP positive nuclei fraction (SkMel2) [%]	cleaved PARP positive nuclei fraction (SkMel30) [%]	cleaved PARP positive nuclei fraction (SkMel5) [%]	cleaved PARP positive nuclei fraction (UACC257) [%]	cleaved PARP positive nuclei fraction (UACC62) [%]
C[C@@H]1CCN(C(=O)CC#N)C[C@@H]1N(C)c1ncnc2[nH]ccc12 + COc1cc2c(Oc3ccc4[nH]c(C)cc4c3F)ncnc2cc1OCCCN1CCCC1 [cediranib] (first compound 1 µM, partner dose 0.4 µM)	72.3	132	277	43.1	48.1	68.8	89.6	26.4	38.1	145	88.9	73.1	57.4	31.9	103	90.1	33.1	257	273
OCCn1cc(-c2cnc3nnn(Cc4ccc5ncccc5c4)c3n2)cn1 + COc1cc2c(Oc3ccc4[nH]c(C)cc4c3F)ncnc2cc1OCCCN1CCCC1 [cediranib] (first compound 1 µM, partner dose 0.4 µM)	80.9	109	217	138	46.7	32.6	193	31.5	90.9	44.3	108	64.6	91.2	55.6	122	57.5	199	72.2	94.1
C=CCNC1=C2C[C@@H](C)C[C@H](OC)[C@H](O)[C@@H](C)/C=C(\C)[C@H](OC(N)=O)[C@@H](OC)/C=C\C=C(/C)C(=O)NC(=CC1=O)C2=O [Tanespimycin] + Cc1cc(N2CCOCC2)cc2[nH]c(-c3c(NC[C@@H](O)c4cccc(Cl)c4)cc[nH]c3=O)nc12 [BMS536924] (first compound 0.002 µM, partner dose 0.2 µM)	141	104	157	63.1	93.8	102	183	32.5	62.8	127	188	38.1	80.6	85.7	65.8	66.7	66.5	71.7	275
Cc1nc(Nc2ncc(C(=O)Nc3c(C)cccc3Cl)s2)cc(N2CCN(CCO)CC2)n1 [dasatanib] + NCC(=O)Nc1ccc(-n2nc(C(F)(F)F)cc2-c2ccc3c(ccc4ccccc43)c2)cc1 [OSU03012] (first compound 0.004 µM, partner dose 1 µM)	279	154	186	85.8	185	113	145	94.1	36.3	124	364	234	192	88.5	305	88.3	52.4	36.4	284
C=CCn1c(=O)c2cnc(Nc3ccc(N4CCN(C)CC4)cc3)nc2n1-c1cccc(C(C)(C)O)n1 + C[C@@H]1CCN(C(=O)CC#N)C[C@@H]1N(C)c1ncnc2[nH]ccc12 [CP690550] (first compound 0.02 µM, partner dose 1 µM)	106	49	105	192	42.6	387	88.4	114	129	11.7	38.8	53.9	103	78.6	74.4	61.1	76.1	30.5	161
Cc1nc(Nc2ncc(C(=O)Nc3c(C)cccc3Cl)s2)cc(N2CCN(CCO)CC2)n1 [dasatanib] + CC(C)(C)c1cnc(CSc2cnc(NC(=O)C3CCNCC3)s2)o1 [SNS-032] (first compound 0.004 µM, partner dose 0.01 µM)	121	43.6	113	110	165	57.7	101	165	151	392	111	171	80.6	80.9	158	125	97.9	190	73.2
OCc1c[nH]c2ccccc12 [Indole-3-carbinol] + COc1cc2c(Oc3ccc4[nH]c(C)cc4c3F)ncnc2cc1OCCCN1CCCC1 [cediranib] (first compound 0.8 µM, partner dose 0.4 µM)	87	85.7	104	133	97.8	48.2	55.6	122	132	150	62.9	38	126	81.3	97.3	63	34.9	72.1	308
COCC[n+]1c2c(n(Cc3cnccn3)c1C)C(=O)c1ccccc1C2=O + C=CCn1c(=O)c2cnc(Nc3ccc(N4CCN(C)CC4)cc3)nc2n1-c1cccc(C(C)(C)O)n1 [MK1775] (first compound 0.0004 µM, partner dose 0.02 µM)	75.8	105	84.1	43	55.6	150	147	95.6	171	566	143	166	82	60.9	107	154	346	185	106
